# Experimental data: patent US20250345370A1, “MICROBIAL LIBERATION OF N-METHYLSEROTONIN FROM ORANGE FIBER” (Washington University, priority 2022, published 2025)
# This continues a long series; more values of the same kind are listed elsewhere.
# System: colon gene expression
# Experiment: RNA-Seq of colonic tissue of germ-free mice treated with 50 mg/kg/d N-methylserotonin
# Format: in vivo, germ-free C57BL/6J mice
# Conditions: colon
structure (smiles),measurement,setting,value
CNCCc1c[nH]c2ccc(O)cc12 [N-methylserotonin],log2 fold-change,gene 2210416O15Rik,0.48
same,log2 fold-change,gene 2610528A11Rik,−0.48
same,log2 fold-change,gene 5730409E04Rik,0.73
same,log2 fold-change,gene 9030619P08Rik,−0.13
same,log2 fold-change,gene 9530002B09Rik,9.07
same,log2 fold-change,gene 9530003J23Rik,7.07
same,log2 fold-change,gene 9530053A07Rik,10.44
same,log2 fold-change,gene A4gnt,0.36
same,log2 fold-change,gene AA467197,−0.50
same,log2 fold-change,gene AW112010,−0.52
same,log2 fold-change,gene Aadac,−0.51
same,log2 fold-change,gene Abat,−0.36
same,log2 fold-change,gene Abcg2,−0.50
same,log2 fold-change,gene Abcg5,−0.77
same,log2 fold-change,gene Acad11,−0.29
same,log2 fold-change,gene Acadsb,0.46
same,log2 fold-change,gene Acbd4,0.41
same,log2 fold-change,gene Acpp,−0.40
same,log2 fold-change,gene Acsm3,−0.55
same,log2 fold-change,gene Acta1,1.78
same,log2 fold-change,gene Actr3,−0.22
same,log2 fold-change,gene Adarb2,2.23
same,log2 fold-change,gene Adgra3,−0.25
same,log2 fold-change,gene Adgrg7,−0.34
same,log2 fold-change,gene Adh1,−0.77
same,log2 fold-change,gene Agpat4,−0.32
same,log2 fold-change,gene Aldh1l1,−0.68
same,log2 fold-change,gene Aldob,−0.54
same,log2 fold-change,gene Alox12,2.13
same,log2 fold-change,gene Ang4,−0.54
same,log2 fold-change,gene Angptl2,0.49
same,log2 fold-change,gene Ank,0.30
same,log2 fold-change,gene Anxa3,−1.00
same,log2 fold-change,gene Aqp4,−0.67
same,log2 fold-change,gene Aqp8,−0.61
same,log2 fold-change,gene Ar,1.20
same,log2 fold-change,gene Arap2,−0.29
same,log2 fold-change,gene Arhgap12,−0.28
same,log2 fold-change,gene Arhgap18,−0.28
same,log2 fold-change,gene Arhgef40,0.36
same,log2 fold-change,gene Arntl,−1.01
same,log2 fold-change,gene Arrdc3,−0.38
same,log2 fold-change,gene Art3,0.40
same,log2 fold-change,gene Atad2,−0.38
same,log2 fold-change,gene Atp11a,0.46
same,log2 fold-change,gene Avl9,−0.29
same,log2 fold-change,gene B3galt5,−0.40
same,log2 fold-change,gene B3gnt5,−0.62
same,log2 fold-change,gene B3gnt7,−0.59
same,log2 fold-change,gene Baat,−1.69
same,log2 fold-change,gene Bcap31,−0.27
same,log2 fold-change,gene Bcas3,0.38
same,log2 fold-change,gene Bhlhe41,0.97
same,log2 fold-change,gene Bicdl1,0.64
same,log2 fold-change,gene Bmpr1b,3.17
same,log2 fold-change,gene Bmt2,−0.38
same,log2 fold-change,gene Bola3,−0.44
same,log2 fold-change,gene Brip1,−0.50
same,log2 fold-change,gene Bub1,−0.51
same,log2 fold-change,gene C1galt1,−0.27
same,log2 fold-change,gene C1rb,7.69
same,log2 fold-change,gene C4bp,−0.74
same,log2 fold-change,gene COX1,−0.41
same,log2 fold-change,gene Cacna1c,0.54
same,log2 fold-change,gene Cacna1h,0.41
same,log2 fold-change,gene Cald1,0.42
same,log2 fold-change,gene Camk2g,0.40
same,log2 fold-change,gene Camkk1,0.76
same,log2 fold-change,gene Capn13,−0.78
same,log2 fold-change,gene Car1,0.44
same,log2 fold-change,gene Casd1,−0.48
same,log2 fold-change,gene Casp1,−0.35
same,log2 fold-change,gene Casp7,−0.38
same,log2 fold-change,gene Cbs,0.33
same,log2 fold-change,gene Cbx5,−0.26
same,log2 fold-change,gene Ccbe1,1.10
same,log2 fold-change,gene Ccdc8,0.83
same,log2 fold-change,gene Ccdc116,0.62
same,log2 fold-change,gene Ccl28,−0.55
same,log2 fold-change,gene Ccni,−0.28
same,log2 fold-change,gene Cd14,−0.44
same,log2 fold-change,gene Cd248,0.77
same,log2 fold-change,gene Cdc42,−0.26
same,log2 fold-change,gene Cdh17,−0.29
same,log2 fold-change,gene Cdkn2b,−0.50
same,log2 fold-change,gene Cdo1,1.77
same,log2 fold-change,gene Ceacam10,5.61
same,log2 fold-change,gene Ceacam20,−0.56
same,log2 fold-change,gene Cela1,−0.68
same,log2 fold-change,gene Cept1,−0.36
same,log2 fold-change,gene Ces2a,−0.77
same,log2 fold-change,gene Ces3a,−1.12
same,log2 fold-change,gene Chordc1,−0.39
same,log2 fold-change,gene Chp2,−0.43
same,log2 fold-change,gene Chpt1,−0.27
same,log2 fold-change,gene Ciart,1.10
same,log2 fold-change,gene Cic,0.36
same,log2 fold-change,gene Ckmt1,−0.62
same,log2 fold-change,gene Ckmt2,−0.74
same,log2 fold-change,gene Clca1,−0.76
same,log2 fold-change,gene Clca3b,−0.37
same,log2 fold-change,gene Cldn1,0.90
same,log2 fold-change,gene Clic5,−0.46
same,log2 fold-change,gene Clock,−0.35
same,log2 fold-change,gene Clrn3,−0.26
same,log2 fold-change,gene Clstn2,1.12
same,log2 fold-change,gene Col4a6,1.01
same,log2 fold-change,gene Col6a1,0.35
same,log2 fold-change,gene Col8a2,0.74
same,log2 fold-change,gene Col23a1,0.53
same,log2 fold-change,gene Col27a1,0.94
same,log2 fold-change,gene Cox5a,−0.35
same,log2 fold-change,gene Cpn1,0.55
same,log2 fold-change,gene Cpq,−0.33
same,log2 fold-change,gene Cr2,−0.79
same,log2 fold-change,gene Crip2,0.46
same,log2 fold-change,gene Crlf2,0.72
same,log2 fold-change,gene Cry1,−0.46
same,log2 fold-change,gene Csrp1,0.39
same,log2 fold-change,gene Ctnnb1,−0.23
same,log2 fold-change,gene Ctse,−0.85
same,log2 fold-change,gene Ctss,−0.40
same,log2 fold-change,gene Cul9,0.49
same,log2 fold-change,gene Cux2,1.61
same,log2 fold-change,gene Cxcl9,−0.14
same,log2 fold-change,gene Cxcl10,−0.13
same,log2 fold-change,gene Cxcl13,−0.49
same,log2 fold-change,gene Cyp2c68,−0.86
same,log2 fold-change,gene Cyp2c69,−0.56
same,log2 fold-change,gene Cyp2d10,−0.70
same,log2 fold-change,gene Cyp2d34,−0.36
same,log2 fold-change,gene Cyp4f16,−0.66
same,log2 fold-change,gene Cyp4f17,0.91
same,log2 fold-change,gene D630003M21Rik,0.74
same,log2 fold-change,gene D630045J12Rik,0.96
same,log2 fold-change,gene D930048N14Rik,1.02
same,log2 fold-change,gene Ddc,−0.64
same,log2 fold-change,gene Defb42,6.02
same,log2 fold-change,gene Dek,−0.26
same,log2 fold-change,gene Dhrs7b,−0.35
same,log2 fold-change,gene Dhx32,−0.33
same,log2 fold-change,gene Dio1,−0.42
same,log2 fold-change,gene Dlgap5,−0.46
same,log2 fold-change,gene Dmxl1,−0.25
same,log2 fold-change,gene Dnajb1,−0.37
same,log2 fold-change,gene Doc2b,1.05
same,log2 fold-change,gene Dram2,−0.27
same,log2 fold-change,gene Dstn,−0.26
same,log2 fold-change,gene Dtnb,0.79
same,log2 fold-change,gene Dusp6,−0.64
same,log2 fold-change,gene Efr3a,−0.26
same,log2 fold-change,gene Efs,0.99
same,log2 fold-change,gene Egf,2.10
same,log2 fold-change,gene Elf5,0.01
same,log2 fold-change,gene Elovl7,−0.40
same,log2 fold-change,gene Eml1,0.35
same,log2 fold-change,gene Enah,0.50
same,log2 fold-change,gene Eno3,−1.06
same,log2 fold-change,gene Epb41l4b,−0.25
same,log2 fold-change,gene Epcam,−0.25
same,log2 fold-change,gene Epn3,0.42
same,log2 fold-change,gene Epsti1,−0.33
same,log2 fold-change,gene Erap1,−0.34
same,log2 fold-change,gene Eri1,−0.33
same,log2 fold-change,gene Esr1,1.09
same,log2 fold-change,gene Esyt3,3.43
same,log2 fold-change,gene Etfdh,−0.26
same,log2 fold-change,gene Eya2,2.05
same,log2 fold-change,gene Fads2,−0.51
same,log2 fold-change,gene Fam53c,0.39
same,log2 fold-change,gene Fam111a,−0.47
same,log2 fold-change,gene Fam118a,0.38
same,log2 fold-change,gene Fam189a2,0.32
same,log2 fold-change,gene Fam234b,1.49
same,log2 fold-change,gene Fbln2,0.35
same,log2 fold-change,gene Fchsd1,0.90
same,log2 fold-change,gene Fermt1,−0.30
same,log2 fold-change,gene Fgfr1,0.39
same,log2 fold-change,gene Fkbp2,0.56
same,log2 fold-change,gene Fmo4,−0.63
same,log2 fold-change,gene Fmod,1.91
same,log2 fold-change,gene Fnbp1,0.46
same,log2 fold-change,gene Folr1,2.49
same,log2 fold-change,gene Fosb,−1.42
same,log2 fold-change,gene Frem1,0.80
same,log2 fold-change,gene Fus,0.57
same,log2 fold-change,gene Galnt1,−0.29
same,log2 fold-change,gene Galnt3,−0.36
same,log2 fold-change,gene Gata2,5.30
same,log2 fold-change,gene Gata3,1.59
same,log2 fold-change,gene Gatm,−0.68
same,log2 fold-change,gene Gbp2,−0.58
same,log2 fold-change,gene Gcnt1,−0.47
same,log2 fold-change,gene Gdpd1,−0.35
same,log2 fold-change,gene Gfm1,−0.30
same,log2 fold-change,gene Ggh,−0.80
same,log2 fold-change,gene Glb1l2,1.79
same,log2 fold-change,gene Glb1l3,10.56
same,log2 fold-change,gene Glis3,0.51
same,log2 fold-change,gene Gm5431,−1.03
same,log2 fold-change,gene Gm5485,−0.73
same,log2 fold-change,gene Gm9926,−0.48
same,log2 fold-change,gene Gm24119,−1.43
same,log2 fold-change,gene Gm25395,−0.77
same,log2 fold-change,gene Gna14,−0.70
same,log2 fold-change,gene Gnmt,3.61
same,log2 fold-change,gene Golm1,−0.32
same,log2 fold-change,gene Gpr146,0.73
same,log2 fold-change,gene Gprin3,−0.38
same,log2 fold-change,gene Grhl1,1.31
same,log2 fold-change,gene Grk3,0.37
same,log2 fold-change,gene Gsdmc2,−0.47
same,log2 fold-change,gene Gsdmc3,−0.80
same,log2 fold-change,gene Gsdmc4,−0.66
same,log2 fold-change,gene Gsto1,−0.31
same,log2 fold-change,gene Gstp2,−0.58
same,log2 fold-change,gene Gxylt2,1.98
same,log2 fold-change,gene H1f2,−0.32
same,log2 fold-change,gene H1f3,−0.45
same,log2 fold-change,gene H1f4,−0.36
same,log2 fold-change,gene H2bc8,−0.45
same,log2 fold-change,gene H2bc14,−0.69
same,log2 fold-change,gene H3c1,−0.50
same,log2 fold-change,gene H3c2,−0.50
same,log2 fold-change,gene H3c4,−0.69
same,log2 fold-change,gene H4c6,−0.56
same,log2 fold-change,gene H4c14,−0.43
same,log2 fold-change,gene Hadha,−0.30
same,log2 fold-change,gene Hao2,−0.52
same,log2 fold-change,gene Hapln4,3.45
same,log2 fold-change,gene Hdgfl2,0.36
same,log2 fold-change,gene Heph,−0.27
same,log2 fold-change,gene Hexa,−0.26
same,log2 fold-change,gene Hexb,−0.82
same,log2 fold-change,gene Hlf,1.26
same,log2 fold-change,gene Hmcn1,−0.39
same,log2 fold-change,gene Hmcn2,0.39
same,log2 fold-change,gene Hsd17b12,−0.33
same,log2 fold-change,gene Hsp90aa1,−0.38
same,log2 fold-change,gene Hspa1a,−0.75
same,log2 fold-change,gene Hspa8,−0.32
same,log2 fold-change,gene Hspb7,0.62
same,log2 fold-change,gene Ifi30,−0.28
same,log2 fold-change,gene Ifih1,−0.29
same,log2 fold-change,gene Ifit1,−0.65
same,log2 fold-change,gene Ifit1bl1,−0.82
same,log2 fold-change,gene Igdcc4,0.39
same,log2 fold-change,gene Igf1r,0.45
same,log2 fold-change,gene Igfbp2,0.75
same,log2 fold-change,gene Igfbp6,0.81
same,log2 fold-change,gene Ighj1,−1.59
same,log2 fold-change,gene Ighv1-78,−0.11
same,log2 fold-change,gene Igkv3-7,−0.12
same,log2 fold-change,gene Igkv4-59,−1.18
same,log2 fold-change,gene Igkv5-48,−0.03
same,log2 fold-change,gene Igkv6-17,−2.05
same,log2 fold-change,gene Igkv9-120,−0.05
same,log2 fold-change,gene Igkv14-100,−0.05
same,log2 fold-change,gene Igkv15-103,−0.07
same,log2 fold-change,gene Igkv16-104,−0.04
same,log2 fold-change,gene Il18,−0.86
same,log2 fold-change,gene Inpp4b,−0.52
same,log2 fold-change,gene Insl5,−0.71
same,log2 fold-change,gene Ipo13,0.44
same,log2 fold-change,gene Iqsec2,0.41
same,log2 fold-change,gene Itgb6,−0.29
same,log2 fold-change,gene Itih2,−0.84
same,log2 fold-change,gene Itih5,−0.43
same,log2 fold-change,gene Itpkb,0.31
same,log2 fold-change,gene Itpripl1,0.78
same,log2 fold-change,gene Iyd,−0.45
same,log2 fold-change,gene Kcnh3,0.47
same,log2 fold-change,gene Kif2c,−0.47
same,log2 fold-change,gene Kif4,−0.54
same,log2 fold-change,gene Kif11,−0.37
same,log2 fold-change,gene Kitl,−0.36
same,log2 fold-change,gene Klb,−0.57
same,log2 fold-change,gene Klf15,1.38
same,log2 fold-change,gene Klhl21,0.38
same,log2 fold-change,gene Klk1,−0.44
same,log2 fold-change,gene Knl1,−0.42
same,log2 fold-change,gene Kpna2,−0.30
same,log2 fold-change,gene Krt5,6.22
same,log2 fold-change,gene Lama3,−0.38
same,log2 fold-change,gene Lama5,0.51
same,log2 fold-change,gene Lamb2,0.47
same,log2 fold-change,gene Laptm4b,−0.36
same,log2 fold-change,gene Lbr,−0.29
same,log2 fold-change,gene Lgr4,−0.29
same,log2 fold-change,gene Lmbrd1,−0.25
same,log2 fold-change,gene Lmcd1,1.45
same,log2 fold-change,gene Lmo3,2.43
same,log2 fold-change,gene Lmod1,0.30
same,log2 fold-change,gene Lpin1,0.43
same,log2 fold-change,gene Lrrc19,−0.42
same,log2 fold-change,gene Lrrn1,1.45
same,log2 fold-change,gene Ltbp3,0.48
same,log2 fold-change,gene Ltbp4,0.37
same,log2 fold-change,gene Ly6a,−0.72
same,log2 fold-change,gene Ly6g2,−0.85
same,log2 fold-change,gene Ly75,−0.46
same,log2 fold-change,gene Lypd8,−0.64
same,log2 fold-change,gene Maged1,0.34
same,log2 fold-change,gene Mal,0.85
same,log2 fold-change,gene Malat1,0.24
same,log2 fold-change,gene Man1a2,−0.22
same,log2 fold-change,gene Maob,−0.38
same,log2 fold-change,gene Mark1,0.81
same,log2 fold-change,gene Mastl,−0.53
same,log2 fold-change,gene Matn2,0.69
same,log2 fold-change,gene Mboat2,0.45
same,log2 fold-change,gene Mcm5,−0.38
same,log2 fold-change,gene Mcm6,−0.44
same,log2 fold-change,gene Meis1,0.33
same,log2 fold-change,gene Melk,−0.41
same,log2 fold-change,gene Mep1b,−0.57
same,log2 fold-change,gene Mest,0.81
same,log2 fold-change,gene Mgat4a,−0.46
same,log2 fold-change,gene Micall2,0.53
same,log2 fold-change,gene Mier2,0.47
same,log2 fold-change,gene Mlph,0.29
same,log2 fold-change,gene Mmp7,4.17
same,log2 fold-change,gene Mnt,0.76
